One assay concerns the target GRK2-wt (UniProt P25098). Put plainly: co-IP; asynchronously growing HeLa transiently transfected with GRK2-WT in the presence or absence of c-Abl (with or without 50 µM adaphostin); lysis buffer B; anti-GRK2 immunoprecipitation, anti-c-Abl blot.
The target of assay [1] is endogenous GRK2 (human (endogenous in HeLa)) (UniProt P25098). The assay is described as above.
Assay [2] deals with Abl2 SH3 domain (SH3 domain-array II) (UniProt P42684). Put plainly: peptide or protein array; purified recombinant GRK2 (15 μg/μl) overlaid on the SH3 domain-array II (Panomics MA3011); detected with anti-GRK2 (C-15); spots similar to or stronger than the positive controls taken as hits; both purified.

Protein sequences, listed by entry. Tags and fused reporters are not part of them. Residues count along the entry.
UniProt P42684, residues 107-167: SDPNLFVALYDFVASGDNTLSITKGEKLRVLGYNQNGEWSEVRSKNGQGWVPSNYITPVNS
UniProt P00519: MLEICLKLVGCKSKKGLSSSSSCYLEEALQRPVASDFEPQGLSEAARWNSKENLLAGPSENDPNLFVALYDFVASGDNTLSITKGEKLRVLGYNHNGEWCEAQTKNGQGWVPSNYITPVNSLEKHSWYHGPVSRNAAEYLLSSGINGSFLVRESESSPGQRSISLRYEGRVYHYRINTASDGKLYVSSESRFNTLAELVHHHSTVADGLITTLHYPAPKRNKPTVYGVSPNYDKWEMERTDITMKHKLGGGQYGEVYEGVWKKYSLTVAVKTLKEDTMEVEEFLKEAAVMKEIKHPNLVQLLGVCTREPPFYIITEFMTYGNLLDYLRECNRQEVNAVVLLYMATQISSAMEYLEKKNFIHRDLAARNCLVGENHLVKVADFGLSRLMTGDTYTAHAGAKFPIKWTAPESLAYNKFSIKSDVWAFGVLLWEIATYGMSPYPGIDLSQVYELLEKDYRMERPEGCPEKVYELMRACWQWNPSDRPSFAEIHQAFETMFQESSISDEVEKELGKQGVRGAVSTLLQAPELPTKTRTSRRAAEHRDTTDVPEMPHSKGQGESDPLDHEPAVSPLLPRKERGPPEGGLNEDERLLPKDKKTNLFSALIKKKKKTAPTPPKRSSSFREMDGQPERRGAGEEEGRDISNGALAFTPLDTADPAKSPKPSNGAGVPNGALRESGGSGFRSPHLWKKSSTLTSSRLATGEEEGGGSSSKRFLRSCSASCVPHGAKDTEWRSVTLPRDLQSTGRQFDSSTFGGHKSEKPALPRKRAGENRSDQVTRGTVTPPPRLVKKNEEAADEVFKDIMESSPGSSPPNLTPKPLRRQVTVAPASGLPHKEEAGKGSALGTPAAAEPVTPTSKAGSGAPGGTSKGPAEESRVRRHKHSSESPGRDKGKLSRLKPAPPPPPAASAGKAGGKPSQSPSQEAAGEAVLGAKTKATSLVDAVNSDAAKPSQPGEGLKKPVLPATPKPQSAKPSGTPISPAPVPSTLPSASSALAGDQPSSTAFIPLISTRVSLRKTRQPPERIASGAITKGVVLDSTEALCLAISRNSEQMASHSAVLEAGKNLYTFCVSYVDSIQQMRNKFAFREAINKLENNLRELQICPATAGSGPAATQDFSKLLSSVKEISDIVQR

These are yes or no findings as the source states them, for the method shown. For part of these data: In cells and extracts the contact can be indirect. Some binding calls cover weakened binding; strength is not graded here.

Consider “Abl1 (overexpressed) (from UniProt P00519 1-1130) (enzyme)”, for which the binding entry (in the assay with GRK2-wt; in assay [1]) was “binds” in each case. Take “purified recombinant GRK2 protein (from UniProt P25098 1-689)”: the binding entry in assay [2] was “binds”.

The values are drawn from article PMC11358448.
